Results deposited as PubChem BioAssay AID1259308 (NCATS, 2017)
Shown is a random part of about 59,000 deposited reagents. Of all reagents, about 1,510 (2.6%) were called active. 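Calls use total luciferase alone and ignore viability, so some active siRNAs may act by altering cell number.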 A number with no mark means an inactive call. The numbers tell different reagents against one gene apart. Not all columns of the deposit are shown.

- Aim: 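Genes whose loss raises luciferase production in HEK293 cells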 (primary screen)
- Cell system: human HEK293 embryonic kidney cells stably expressing firefly luciferase (HEK-CMV-Luc2-Hygro)
- Reagent: single siRNA against human genes, 0.8 pmol siRNA per well
- Timing: 72 h
- Detection: 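Reporter luminescence and viable-cell signal on separate replicate plates, given as percent of non-targeting control and median/MAD z-scores, plus per-cell luciferase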
- Scale: total luciferase, z-score and total luciferase, % of control: higher = more reporter protein produced
- Rule for the call: 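An siRNA counts as active if its total luciferase robust z-score exceeds 3; genes with two or more such siRNAs out of three were retested with fresh siRNAs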
- Calls: active = raised luciferase; inactive = no rise

target gene	reagent no.	total luciferase, z-score	total luciferase, % of control
OR2C3 (olfactory receptor family 2 subfamily C member 3)	1	-1.39	54.2
OR2C3 (olfactory receptor family 2 subfamily C member 3)	2	-1.12	59.5
OR2C3 (olfactory receptor family 2 subfamily C member 3)	3	0.0869	83.6
IGF1 (insulin like growth factor 1)	1	-0.427	73.4
IGF1 (insulin like growth factor 1)	2	1.73	116
IGF1 (insulin like growth factor 1)	3	1.1	104
PSORS1C2 (psoriasis susceptibility 1 candidate 2)	1	0.196	85.8
PSORS1C2 (psoriasis susceptibility 1 candidate 2)	2	0.0373	82.6
PSORS1C2 (psoriasis susceptibility 1 candidate 2)	3	-0.395	74
RNF135 (ring finger protein 135)	1	0.788	97.6
RNF135 (ring finger protein 135)	2	0.122	84.3
RNF135 (ring finger protein 135)	3	0.279	87.4
RPS27 (ribosomal protein S27)	1	-1.53	51.4
RPS27 (ribosomal protein S27)	2	-2.05	41.1
RPS27 (ribosomal protein S27)	3	-2.38	34.5
S100A2 (S100 calcium binding protein A2)	1	1.73	116
S100A2 (S100 calcium binding protein A2)	2	-0.0536	80.8
S100A2 (S100 calcium binding protein A2)	3	-2.09	40.4

The list goes on; the last 3 above are carried over.
target gene	reagent no.	total luciferase, z-score	total luciferase, % of control
S100A2 (S100 calcium binding protein A2)	1	1.73	116
S100A2 (S100 calcium binding protein A2)	2	-0.0536	80.8
S100A2 (S100 calcium binding protein A2)	3	-2.09	40.4
UTP11 (UTP11 small subunit processome component)	1	-1.44	53.3
UTP11 (UTP11 small subunit processome component)	2	-1.39	54.3
UTP11 (UTP11 small subunit processome component)	3	-1.4	54
FOXF1 (forkhead box F1)	1	-1.48	52.5
FOXF1 (forkhead box F1)	2	1.64	114
FOXF1 (forkhead box F1)	3	-0.768	66.6
BTBD19 (BTB domain containing 19)	1	-1.76	46.8
BTBD19 (BTB domain containing 19)	2	-1.73	47.4
BTBD19 (BTB domain containing 19)	3	-1.04	61.2
ZCCHC24 (zinc finger CCHC-type containing 24)	1	-0.63	69.4
ZCCHC24 (zinc finger CCHC-type containing 24)	2	1.42	110
ZCCHC24 (zinc finger CCHC-type containing 24)	3	-0.881	64.4
RCL1 (RNA terminal phosphate cyclase like 1)	1	-0.674	68.5
RCL1 (RNA terminal phosphate cyclase like 1)	2	-1.52	51.7
RCL1 (RNA terminal phosphate cyclase like 1)	3	-0.813	65.7
GHRL (ghrelin and obestatin prepropeptide)	1	0.0253	82.4
GHRL (ghrelin and obestatin prepropeptide)	2	0.0294	82.5
GHRL (ghrelin and obestatin prepropeptide)	3	1.6	114
TNNC2 (troponin C2, fast skeletal type)	1	-0.756	66.9
TNNC2 (troponin C2, fast skeletal type)	2	0.973	101
TNNC2 (troponin C2, fast skeletal type)	3	0.292	87.7
